Taken from: PubChem BioAssay AID1159578 (Peter MacCallum Cancer Centre, 2015)

- Assay: 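Knock-downs that alter how fast lymphatic endothelial cells migrate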 (primary screen)
- Cell system: human lymphatic endothelial cells
- Knock-down reagent: siRNA pool against human genes, 40 nM
- Timing: 48 h after transfection
- Measurement: 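High-content imaging of dye-stained cells in a scratch assay measures filled wound area and nuclei per well; duplicate means given as ratio to mock and robust z-score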
- Scale: migration robust z-score: higher = faster migration into the scratch; nuclei per well: higher = more cells in the well
- Rule for the call: 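Pools averaging fewer than 3300 nuclei are never called; remaining pools count as changed when migration robust z lies outside -2 to 2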
- Calls: active = migration changed; inactive = no migration change, or too few cells
Shown is an unselected part of about 18,000 deposited reagents. Of all reagents, about 1,030 (5.7%) got an active call. 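Inactive calls also include pools with fewer than 3300 nuclei, whose migration was not assessed.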 Raw values vary from plate to plate and are shown uncorrected. Unmarked entries are inactive. Not all columns of the deposit are shown. Reagent sequences are not shown.

target | migration robust z-score | nuclei per well, duplicate mean
PLAAT2 | -0.94 | 5990
COL23A1 | 0.56 | 4544
MT3 | 0.86 | 4587
POGZ | 0.65 | 5762
ASPDH | -0.12 | 5380
ELOVL4 | -0.73 | 3845
OR4A16 | 0.72 | 5652
CNKSR1 | -2.74 (active) | 4298
GPR157 | -0.49 | 6081
CCNL2 | -1.01 | 5885
NUBP2 | 0.91 | 5568
UBE2N | -0.52 | 5117
RTF2 | 1.72 | 5774
CR1 | 0.6 | 5548
CD200R1L | -2.43 (active) | 3434
SSX4 | 0.68 | 5716
RPS6KA1 | 0.26 | 6024
KCNN1 | -0.55 | 5622
IQSEC3 | 0.49 | 5367
BCHE | 0.34 | 4859
CHRNA1 | -0.34 | 4540
CIMAP3 | -0.68 | 4670
FAM3B | 1.88 | 6811
VSTM4 | 1.25 | 5418
SPARC | -1.34 | 3873
DNAH11 | 0.08 | 5604
PRKD2 | -0.88 | 6559
RNF128 | 1.43 | 4612
BAG3 | 0.98 | 5876
SPRED2 | 0.62 | 5795
KRT4 | -0.29 | 5166
GLTPD2 | -3.12 (active) | 5774
TET2 | 2.4 (active) | 7480
SPRY3 | 0 | 4939
ZSCAN18 | 0.44 | 6344
DNAJB4 | -0.37 | 7330
C3orf62 | -0.9 | 3708
ZNF781 | 2.04 (active) | 6480
CLVS2 | 0.15 | 6659
FAM47B | -1.77 | 3419
ZIC4 | -1.67 | 6195
HOXD3 | 0.35 | 5746
CCDC181 | 0.67 | 6281
HSDL1 | 2.54 (active) | 5715
UNC5A | 0.35 | 6254
EFNB3 | 0.68 | 6336
QRICH2 | 1.01 | 5690
AOX1 | 0.1 | 5102
RNASE1 | -0.55 | 5430
IFI6 | -1.1 | 5560
ZFR2 | 0.39 | 4944
PF4V1 | 0.43 | 5284
LMOD3 | 0.65 | 5749
ZPLD1 | -0.37 | 7726
RAB1A | 0.08 | 4598
GDPD2 | 1.35 | 5703
RAB11FIP4 | 0.46 | 4572

Limited to “nuclei per well, duplicate mean” (3 entries from above):
GLTPD2 = 5774 (active)
TET2 = 7480 (active)
SPRY3 = 4939
